In PubChem BioAssay AID1347076 (National Center for Advancing Translational Sciences (NCATS), 2019):
Among all 400,000 compounds or so, about 13,000 (3.2%) were called active. Inconclusive means that the source gave no clear call. Such entries were picked first, then a sample of the others. The call rests on the fitted dose curve; in most records, active means well fitted cell-killing curve with a large enough effect; inconclusive means small, poorly fitted or top-dose-only effect, or effect the other way; inactive means flat fitted curve, though single readings scatter. Potencies beside an inconclusive call are fits to weak or partial responses and may not hold up.

experiment: qHTS assay for MDR1-selective chemotherapeutics: Primary screen using the drug-selected MDR subline cells KB-V1; conditions: KB-V1 MDR cells viability, CellTiter-Glo, 72 h; activity change, negative = cytotoxicity: at 46.1 µM (top of the series); further: nearly all actives have a fitted effect of over 60% in size
Summary of the method: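 Cells of the MDR subline KB-V1 are plated, dosed with compound at multiple concentrations, and incubated 72 h at 37 degrees C; CellTiter-Glo is then added and luminescence read after 10 min.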
On the % scale 0 is the no-effect control and ±100 the full control effect; potency means the concentration at half of the fitted maximal effect.

SMILES | Potency | activity change, negative = cytotoxicity
CCN(CCNC(=O)c1cccc(N2CCCC2=O)c1)c1ccccc1 | inconclusive: 16.4 µM [cytotoxic, single point] | 
O=C(NN1C(=O)NC2(CCCCC2)C1=O)c1cc(F)cc(F)c1 | inconclusive: 23.1 µM [cytotoxic, partial curve, poor fit] | 
CCc1ccc(C(O)c2ncc(-c3ccccc3OC)[nH]2)cc1 (stereo not given) | inactive | 
O=C(Nc1ccc(F)cc1)c1ccc(-n2cnc3cccnc32)cc1 | inconclusive: 10.3 µM [cytotoxic, partial curve] | 
O=S(=O)(NCC(c1ccco1)N1CCN(c2ccc(F)cc2)CC1)c1ccc2c(c1)OCCO2 (stereo not given) | inconclusive: 9.2 µM [cytotoxic, partial curve] | 
O=C(NCCS(=O)(=O)N1CCN(c2ccccc2F)CC1)c1cc(=O)c2ccccc2o1 | inactive | 
COc1ccc(OC)c(/C=C/C(=O)N2CCCc3ccccc32)c1 | inconclusive: 18.4 µM [cytotoxic, partial curve] | 
OC(CNc1ncnc2sccc12)c1ccccc1 (stereo not given) | inactive | 
NC(=O)c1ccc(NC(=O)COC(=O)/C=C/c2cccs2)cc1 | inactive | 
COc1ccc(CCN(Cc2ccccn2)C(=S)Nc2ccc(C)cc2)cc1OC | active: 23.1 µM | 
CC(=O)c1cccc(NC(=O)C2=CN3CCS(=O)(=O)N=C3C=C2)c1 | inactive | 
CC1CCCN(c2ccc(C(=O)NCc3ccc4c(c3)OCO4)cc2[N+](=O)[O-])C1 (stereo not given) | inconclusive: 23.1 µM [cytotoxic, single point] | 
Cc1ccc(CCNC(=O)CN(C)S(=O)(=O)c2ccc3c(c2)n(C)c(=O)c(=O)n3C)cc1 | inactive | 
Cc1ccc2c(c1)c1c(n2C)-c2[nH]ncc2CC1 | inconclusive: 29.1 µM [cytotoxic, single point] | 
Oc1ccc(Br)cc1/C=N/Nc1ncc(-c2ccccc2)cn1 | inconclusive: 5.8 µM [cytotoxic, partial curve, poor fit] | 
O=C(OCc1ccc2c(c1)OCO2)c1cccc(S(=O)(=O)N2CCCCC2)c1 | inconclusive: 29.1 µM [cytotoxic, single point] | 
COC(=O)c1c(SC)nc2ccccc2c1OCc1cccc(C)c1 | inconclusive: 29.1 µM [rising, partial curve, poor fit] | 
CCCCNC(=O)CSc1ccc(S(=O)(=O)N2CCOCC2)cn1 | inactive | 
COc1ccc(NC(=O)c2cccc3c(Br)cccc23)cc1 | inactive | 
CC1CCN(CCCNC(=O)c2ccc3c(=O)n(Cc4ccc(Cl)cc4)c(=S)[nH]c3c2)CC1 | inconclusive: 29.1 µM [cytotoxic, single point] | 
COc1ccc2cc(CCNC(=O)c3cccc([N+](=O)[O-])c3)c(=O)[nH]c2c1 |  | inconclusive: 11.1%
CCCN(Cc1ccccc1)C(=S)Nc1ccc(SC(F)F)cc1 | inconclusive: 20.6 µM [cytotoxic, single point] | 
CC(C)(C)OC(=O)NNc1c2ccccc2nc2ccccc12 | active: 9.2 µM | 

Record cards, as listed above:
`COc1ccc2cc(CCNC(=O)c3cccc([N+](=O)[O-])c3)c(=O)[nH]c2c1` in the list: activity change, negative = cytotoxicity: inconclusive: 11.1%
`CC(=O)c1cccc(NC(=O)C2=CN3CCS(=O)(=O)N=C3C=C2)c1` in the list: Potency: inactive
`O=C(Nc1ccc(F)cc1)c1ccc(-n2cnc3cccnc32)cc1` in the list: Potency: inconclusive: 10.3 µM [cytotoxic, partial curve]

(next part)

SMILES | Potency | activity change, negative = cytotoxicity
CN(c1ncnc(N)c1[N+](=O)[O-])C1CCCCC1 | inactive | 
Cc1c(C(=O)NCc2ccc3c(c2)OCCO3)sc(=O)n1Cc1ccc(C(=O)N(C)C)cc1 | inconclusive: 18.4 µM [cytotoxic, single point] | 
O=C(NC1CCCC1)C(c1ccccc1)n1c(-c2cccc3ccccc23)nc2ccccc21 (stereo not given) | inconclusive: 16.4 µM [cytotoxic, partial curve] | 
CCCC(=O)N(c1ccc2oc3c(c2c1)CCCC3)S(=O)(=O)c1ccc(CC)cc1 | inconclusive: 23.1 µM [cytotoxic, single point] | 
COc1ccc(S(=O)(=O)N2CCCOC2CNC(=O)C(=O)NCCc2ccco2)cc1C (stereo not given) | inactive | 
COc1ccc(OCCOC(=O)c2[nH]c(C)c(C(C)=O)c2C)cc1 | inconclusive: 9.2 µM [cytotoxic, single point] | 
CC1CCN(S(=O)(=O)c2ccc3c(c2)N(CC(=O)NCc2ccccc2Cl)C(=O)CO3)CC1 | inconclusive: 3.26 µM [cytotoxic, full curve] | 
COc1ccc(C(=O)Nc2ccc(Cn3ccnc3)cc2)cc1OC | inconclusive: 29.1 µM [rising, single point] | 
CC(C)(C)c1ccc(OCc2ccc(C(=O)N/N=C3\CC4CC=CC34)cc2)cc1 (stereo not given) | inconclusive: 29.1 µM [cytotoxic, single point] | 
COCCCn1c(C)c(C(C)=O)cc(NC(=O)c2ccccc2)c1=O | inconclusive: 7.31 µM [cytotoxic, partial curve] | 
O=C(CNC1=NCCC1)c1ccc2c(c1)OCCO2 | inconclusive: 1.84 µM [rising, full curve] | 
Cn1c(=O)c2c(ncn2CC(=O)Nc2nnc(Cc3ccccc3)s2)n(C)c1=O | inconclusive: 6.51 µM [rising, partial curve, poor fit] | 
COc1ccc(NCc2nc3ccccc3n2CCOc2ccccc2C)cc1 | inconclusive: 29.1 µM [cytotoxic, single point] | 
COc1ccccc1-c1cc(C(F)(F)F)nc(N2CCOCC2)n1 | inconclusive: 32.6 µM [cytotoxic, single point] | 
Cc1ccc(S(=O)(=O)N2CCN(c3nc(-n4cnc5ccccc54)nc4ccccc34)CC2)cc1 | inconclusive: 16.4 µM [rising, single point] | 
COc1ccc(NC(=O)C2(C)Cc3c(-c4cccc(C(N)=O)c4)ccnc3O2)cc1OC (stereo not given) | inactive | 
COc1ccc2nc(N/C(N)=N/C(=S)Nc3ccccc3)nc(C)c2c1 | active: 9.2 µM | 
COc1ccc(C2CC(c3ccc(OC)c(OC)c3)=NN2C(=O)c2ccccc2)cc1 (stereo not given) | inactive | 
CC(C)C(C(=O)NC1=NCCS1)c1ccc(Cl)cc1 (stereo not given) | inconclusive: 20.6 µM [cytotoxic, partial curve] | 
Cc1ccsc1C(=O)N/N=C/c1ccc2c(c1)OCO2 | active: 18.4 µM | 
COc1ccc2c(c1)c1c3n2CCN(C)C3=NCC1 | inactive | 
COC(=O)C1=C(C)N(C)C(=S)NC1c1ccc(Cl)cc1 (stereo not given) | inconclusive: 18.4 µM [cytotoxic, single point] | 
